# Data source: PubChem BioAssay AID1259308 (NCATS, 2017)
# Aim: 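Genes whose loss raises luciferase production in HEK293 cells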 (primary screen)
# System: human HEK293 embryonic kidney cells stably expressing firefly luciferase (HEK-CMV-Luc2-Hygro)
# Knock-down reagent: single siRNA against human genes, 0.8 pmol siRNA per well
# Duration: 72 h
# Detection: 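Reporter luminescence and viable-cell signal on separate replicate plates, given as percent of non-targeting control and median/MAD z-scores, plus per-cell luciferase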
# Scale: total luciferase, z-score and total luciferase, % of control: higher = more reporter protein produced
# Call rule: 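An siRNA counts as active if its total luciferase robust z-score exceeds 3; genes with two or more such siRNAs out of three were retested with fresh siRNAs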
# Meaning of the calls: active = raised luciferase; inactive = no rise
# Shown is an unselected part of about 59,000 deposited reagents. About 1,510 of all reagents (2.6%) count as active. 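Calls use total luciferase alone and ignore viability, so some active siRNAs may act by altering cell number.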 Entries without a mark were called inactive. The numbers tell different reagents against one gene apart. Not all columns of the deposit are shown.
target,reagent,"total luciferase, z-score","total luciferase, % of control"
C5orf24,1,0.472,91.3
C5orf24,2,-1.77,46.6
C5orf24,3,-0.576,70.4
RPS27,1,-1.53,51.4
RPS27,2,-2.05,41.1
RPS27,3,-2.38,34.5
PRMT6,1,2.41,130
PRMT6,2,-0.415,73.6
PRMT6,3,-0.0429,81
ALG9,1,-1.13,59.5
ALG9,2,-1.19,58.1
ALG9,3,-0.049,80.9
SERPIND1,1,-0.471,72.5
SERPIND1,2,-1.28,56.4
SERPIND1,3,-0.285,76.2
SLC25A38P1,1,0.353,88.9
SLC25A38P1,2,3.25 (active),147
SLC25A38P1,3,-1.64,49.3
RNF167,1,2.11,124
RNF167,2,1.57,113
RNF167,3,0.249,86.8
ACKR1,1,-0.377,74.4
ACKR1,2,-0.787,66.2
ACKR1,3,-0.575,70.4

6 entries from above, sorted by “total luciferase, % of control”, low to high:
target,reagent,"total luciferase, z-score","total luciferase, % of control"
SLC25A38P1,3,-1.64,49.3
SERPIND1,2,-1.28,56.4
SERPIND1,3,-0.285,76.2
SLC25A38P1,1,0.353,88.9
RNF167,1,2.11,124
SLC25A38P1,2,3.25 (active),147

Further records follow.
target,reagent,"total luciferase, z-score","total luciferase, % of control"
SLC35G1,1,1.67,115
SLC35G1,2,0.538,92.6
SLC35G1,3,0.31,88.1
MST1,1,-1.9,44
MST1,2,-0.387,74.2
MST1,3,0.233,86.5
TOR4A,1,-0.2,77.9
TOR4A,2,0.289,87.6
TOR4A,3,0.412,90.1
IFNAR2,1,-1.76,46.9
IFNAR2,2,-0.315,75.6
IFNAR2,3,-0.926,63.5
ARMC3,1,-0.49,72.1
ARMC3,2,-0.606,69.8
ARMC3,3,-0.562,70.7
BICDL1,1,1.06,103
BICDL1,2,2.09,123
BICDL1,3,0.753,96.9
ATXN3,1,-0.0999,79.9
ATXN3,2,0.178,85.4
ATXN3,3,2.6,134
HHLA2,1,0.13,84.5
HHLA2,2,-0.487,72.2
HHLA2,3,1.21,106
SMOC1,1,-0.101,79.9
SMOC1,2,-0.403,73.9
SMOC1,3,0.258,87
LOC284912,1,0.938,101
LOC284912,2,-0.176,78.4
LOC284912,3,0.591,93.6
ANGPT4,1,0.39,89.6
ANGPT4,2,0.156,85
ANGPT4,3,-0.437,73.2
